Some of the results follow.
How the values were obtained:
Experiment in all cases: log2 fold change, soluble protein after heating vs DMSO (PISA); higher = thermal stabilisation; K562 cells, 10 uM, 30 min; active = over 0.2 and 3.5 SD of the protein, either way, in both replicates (recomputed)
[1] = compound: C#Cc1cccc(Nc2ncnc3cc(OCCOC)c(OCCOC)cc23)c1 [erlotinib]
Procedure, shortened: (§1)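 K562 cells (2×10^6 cells/mL) were treated with 10 μM compound for 30 min, and aliquots were heated for 3 min over 48°C-58°C. Pooled aliquots were extracted in PBS with 0.5% NP-40 at 4°C, and the supernatant after 21,000xg for 90 min was measured by TMTpro 16plex LC-MS/MS with channel sums equalised. Reported thermal stability, relative to control samples and from duplicates, is a log2 fold change.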

The chains behind the UniProt entries cited, without tags or fusion partners. Where a name states a change or a piece, a line headed by the entry shows the natural chain unless it says otherwise.
UniProt Q96CW6: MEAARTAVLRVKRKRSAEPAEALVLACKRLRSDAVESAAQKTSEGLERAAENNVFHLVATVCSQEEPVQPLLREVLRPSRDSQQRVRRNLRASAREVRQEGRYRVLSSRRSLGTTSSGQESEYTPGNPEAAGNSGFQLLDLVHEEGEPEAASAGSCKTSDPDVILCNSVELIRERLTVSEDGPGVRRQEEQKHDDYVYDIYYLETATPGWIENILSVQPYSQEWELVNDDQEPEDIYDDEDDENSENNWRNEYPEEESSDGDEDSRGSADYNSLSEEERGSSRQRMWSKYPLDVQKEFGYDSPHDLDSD
UniProt O14508, whole entry, looked up: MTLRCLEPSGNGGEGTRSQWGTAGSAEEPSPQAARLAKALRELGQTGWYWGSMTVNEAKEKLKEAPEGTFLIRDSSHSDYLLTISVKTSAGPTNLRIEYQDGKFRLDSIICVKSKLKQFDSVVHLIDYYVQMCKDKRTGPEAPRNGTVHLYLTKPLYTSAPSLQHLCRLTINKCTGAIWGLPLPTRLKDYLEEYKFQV
UniProt O95149, whole entry, looked up: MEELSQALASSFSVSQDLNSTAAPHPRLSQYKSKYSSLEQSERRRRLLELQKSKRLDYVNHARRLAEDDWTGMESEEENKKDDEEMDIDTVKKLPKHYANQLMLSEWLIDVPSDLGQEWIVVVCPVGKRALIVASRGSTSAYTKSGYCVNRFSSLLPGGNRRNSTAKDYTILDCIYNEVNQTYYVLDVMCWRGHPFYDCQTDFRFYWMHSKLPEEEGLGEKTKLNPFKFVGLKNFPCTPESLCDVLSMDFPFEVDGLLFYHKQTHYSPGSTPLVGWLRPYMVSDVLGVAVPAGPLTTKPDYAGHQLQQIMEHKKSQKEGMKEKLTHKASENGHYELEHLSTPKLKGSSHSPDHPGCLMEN
UniProt Q8IYB5: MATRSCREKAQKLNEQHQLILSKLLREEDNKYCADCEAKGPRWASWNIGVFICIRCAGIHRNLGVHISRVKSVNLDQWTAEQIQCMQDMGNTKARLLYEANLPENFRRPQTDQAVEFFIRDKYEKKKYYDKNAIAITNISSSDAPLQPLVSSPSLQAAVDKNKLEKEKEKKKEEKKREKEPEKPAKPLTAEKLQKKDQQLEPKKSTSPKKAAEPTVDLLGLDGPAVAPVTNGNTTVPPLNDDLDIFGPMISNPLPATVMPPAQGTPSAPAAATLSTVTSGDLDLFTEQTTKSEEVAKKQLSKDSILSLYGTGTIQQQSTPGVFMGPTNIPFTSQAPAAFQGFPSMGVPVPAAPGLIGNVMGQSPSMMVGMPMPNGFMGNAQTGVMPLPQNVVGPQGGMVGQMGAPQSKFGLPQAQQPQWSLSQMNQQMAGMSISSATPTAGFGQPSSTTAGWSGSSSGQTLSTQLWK
UniProt O75643, whole entry, looked up: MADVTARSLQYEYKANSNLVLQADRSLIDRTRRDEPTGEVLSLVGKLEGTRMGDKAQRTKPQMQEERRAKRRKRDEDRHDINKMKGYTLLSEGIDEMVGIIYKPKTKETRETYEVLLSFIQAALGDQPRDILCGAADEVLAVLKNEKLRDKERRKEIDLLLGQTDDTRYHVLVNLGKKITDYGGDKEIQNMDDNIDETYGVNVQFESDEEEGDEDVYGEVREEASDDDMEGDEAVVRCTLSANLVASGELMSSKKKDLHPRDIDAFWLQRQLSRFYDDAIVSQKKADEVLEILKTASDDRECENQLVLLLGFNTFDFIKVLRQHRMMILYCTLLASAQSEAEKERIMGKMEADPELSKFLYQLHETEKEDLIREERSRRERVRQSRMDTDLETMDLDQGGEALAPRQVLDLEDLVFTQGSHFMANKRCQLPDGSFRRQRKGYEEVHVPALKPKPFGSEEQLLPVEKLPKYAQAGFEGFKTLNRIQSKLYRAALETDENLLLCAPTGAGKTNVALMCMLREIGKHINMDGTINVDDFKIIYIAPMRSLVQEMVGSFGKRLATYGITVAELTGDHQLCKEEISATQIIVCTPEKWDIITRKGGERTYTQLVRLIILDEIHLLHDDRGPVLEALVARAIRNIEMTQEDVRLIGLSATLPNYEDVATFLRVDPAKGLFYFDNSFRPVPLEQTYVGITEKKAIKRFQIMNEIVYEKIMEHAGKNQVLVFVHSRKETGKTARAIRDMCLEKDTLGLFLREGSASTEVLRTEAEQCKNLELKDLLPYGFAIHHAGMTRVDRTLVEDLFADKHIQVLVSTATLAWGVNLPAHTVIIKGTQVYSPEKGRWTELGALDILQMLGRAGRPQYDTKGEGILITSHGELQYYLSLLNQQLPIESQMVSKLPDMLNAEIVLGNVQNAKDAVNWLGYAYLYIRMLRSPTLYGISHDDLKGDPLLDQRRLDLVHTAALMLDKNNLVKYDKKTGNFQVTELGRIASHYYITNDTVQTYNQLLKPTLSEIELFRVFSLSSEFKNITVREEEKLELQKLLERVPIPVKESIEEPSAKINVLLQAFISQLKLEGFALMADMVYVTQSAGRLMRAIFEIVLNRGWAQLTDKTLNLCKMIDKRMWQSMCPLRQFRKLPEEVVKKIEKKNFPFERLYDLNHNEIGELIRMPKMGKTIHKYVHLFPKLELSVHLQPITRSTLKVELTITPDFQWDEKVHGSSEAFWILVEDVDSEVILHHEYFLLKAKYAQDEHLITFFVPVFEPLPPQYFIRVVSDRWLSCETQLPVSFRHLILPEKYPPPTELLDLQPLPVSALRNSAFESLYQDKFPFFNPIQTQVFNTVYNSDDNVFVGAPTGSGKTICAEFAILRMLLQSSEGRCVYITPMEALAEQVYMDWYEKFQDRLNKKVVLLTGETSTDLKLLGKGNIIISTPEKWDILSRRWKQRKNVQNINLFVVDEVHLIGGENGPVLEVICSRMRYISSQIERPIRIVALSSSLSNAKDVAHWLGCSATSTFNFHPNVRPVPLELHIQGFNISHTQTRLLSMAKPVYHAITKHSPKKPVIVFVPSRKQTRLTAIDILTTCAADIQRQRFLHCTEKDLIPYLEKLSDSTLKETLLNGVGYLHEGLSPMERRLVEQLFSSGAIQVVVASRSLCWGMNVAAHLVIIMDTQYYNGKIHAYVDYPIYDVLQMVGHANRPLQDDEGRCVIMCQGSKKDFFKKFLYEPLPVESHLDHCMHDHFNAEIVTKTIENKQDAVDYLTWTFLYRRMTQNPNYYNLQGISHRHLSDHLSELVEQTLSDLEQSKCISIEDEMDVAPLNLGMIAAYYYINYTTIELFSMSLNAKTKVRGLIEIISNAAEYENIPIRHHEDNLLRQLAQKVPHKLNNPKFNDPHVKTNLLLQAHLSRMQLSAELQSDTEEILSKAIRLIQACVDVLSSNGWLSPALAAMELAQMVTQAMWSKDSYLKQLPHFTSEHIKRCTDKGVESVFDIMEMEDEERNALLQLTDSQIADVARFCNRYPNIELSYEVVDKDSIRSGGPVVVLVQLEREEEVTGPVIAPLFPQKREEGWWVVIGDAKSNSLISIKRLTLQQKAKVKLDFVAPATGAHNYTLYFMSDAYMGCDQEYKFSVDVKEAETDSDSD
UniProt Q13596, whole entry, looked up: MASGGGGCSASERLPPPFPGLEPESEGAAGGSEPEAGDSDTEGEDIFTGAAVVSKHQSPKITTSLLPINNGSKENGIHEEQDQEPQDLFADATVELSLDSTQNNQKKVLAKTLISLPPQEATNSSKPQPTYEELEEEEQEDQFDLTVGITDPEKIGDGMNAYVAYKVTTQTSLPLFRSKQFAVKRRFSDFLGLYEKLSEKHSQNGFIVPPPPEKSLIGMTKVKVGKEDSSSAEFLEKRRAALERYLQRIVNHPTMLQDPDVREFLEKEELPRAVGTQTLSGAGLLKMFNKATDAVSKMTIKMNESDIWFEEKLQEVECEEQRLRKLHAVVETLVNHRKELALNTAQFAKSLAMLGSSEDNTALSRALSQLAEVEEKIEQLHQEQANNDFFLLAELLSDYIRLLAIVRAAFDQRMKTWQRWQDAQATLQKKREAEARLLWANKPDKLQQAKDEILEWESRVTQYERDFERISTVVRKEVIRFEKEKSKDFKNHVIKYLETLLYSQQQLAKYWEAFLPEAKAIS
UniProt P09012, whole entry, looked up: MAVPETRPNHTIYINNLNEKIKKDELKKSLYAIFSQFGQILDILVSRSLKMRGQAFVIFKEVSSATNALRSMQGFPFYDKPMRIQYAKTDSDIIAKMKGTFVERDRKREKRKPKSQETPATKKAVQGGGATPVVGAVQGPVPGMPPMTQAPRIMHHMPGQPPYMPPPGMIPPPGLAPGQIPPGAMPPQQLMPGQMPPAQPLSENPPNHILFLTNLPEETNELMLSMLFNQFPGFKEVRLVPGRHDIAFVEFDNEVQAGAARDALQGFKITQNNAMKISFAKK
UniProt Q9H4L7: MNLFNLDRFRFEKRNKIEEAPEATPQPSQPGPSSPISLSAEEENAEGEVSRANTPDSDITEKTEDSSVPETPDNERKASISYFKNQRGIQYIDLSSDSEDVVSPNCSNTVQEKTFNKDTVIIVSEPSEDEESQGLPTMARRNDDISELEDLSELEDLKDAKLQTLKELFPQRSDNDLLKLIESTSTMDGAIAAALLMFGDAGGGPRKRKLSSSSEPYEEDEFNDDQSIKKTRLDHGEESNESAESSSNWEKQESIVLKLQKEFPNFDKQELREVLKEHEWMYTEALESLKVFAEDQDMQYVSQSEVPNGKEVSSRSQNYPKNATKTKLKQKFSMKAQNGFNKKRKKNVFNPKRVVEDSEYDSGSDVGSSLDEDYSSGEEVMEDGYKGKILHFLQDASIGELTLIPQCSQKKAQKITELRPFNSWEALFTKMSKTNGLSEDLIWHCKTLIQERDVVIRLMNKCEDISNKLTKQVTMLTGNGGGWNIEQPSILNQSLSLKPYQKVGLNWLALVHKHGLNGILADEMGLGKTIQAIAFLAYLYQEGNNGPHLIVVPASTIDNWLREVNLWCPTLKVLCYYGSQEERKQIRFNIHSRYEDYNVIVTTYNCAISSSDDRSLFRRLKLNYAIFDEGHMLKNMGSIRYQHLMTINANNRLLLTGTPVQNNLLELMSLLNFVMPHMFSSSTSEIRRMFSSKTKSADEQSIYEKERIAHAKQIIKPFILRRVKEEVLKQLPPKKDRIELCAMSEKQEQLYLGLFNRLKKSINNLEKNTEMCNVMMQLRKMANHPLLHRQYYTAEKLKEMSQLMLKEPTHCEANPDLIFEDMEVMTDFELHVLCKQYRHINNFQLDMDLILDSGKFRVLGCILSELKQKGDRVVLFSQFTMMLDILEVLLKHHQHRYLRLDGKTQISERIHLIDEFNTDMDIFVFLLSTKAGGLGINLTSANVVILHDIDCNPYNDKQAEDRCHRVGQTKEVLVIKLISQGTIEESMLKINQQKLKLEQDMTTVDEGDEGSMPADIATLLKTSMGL
UniProt Q9H2G2: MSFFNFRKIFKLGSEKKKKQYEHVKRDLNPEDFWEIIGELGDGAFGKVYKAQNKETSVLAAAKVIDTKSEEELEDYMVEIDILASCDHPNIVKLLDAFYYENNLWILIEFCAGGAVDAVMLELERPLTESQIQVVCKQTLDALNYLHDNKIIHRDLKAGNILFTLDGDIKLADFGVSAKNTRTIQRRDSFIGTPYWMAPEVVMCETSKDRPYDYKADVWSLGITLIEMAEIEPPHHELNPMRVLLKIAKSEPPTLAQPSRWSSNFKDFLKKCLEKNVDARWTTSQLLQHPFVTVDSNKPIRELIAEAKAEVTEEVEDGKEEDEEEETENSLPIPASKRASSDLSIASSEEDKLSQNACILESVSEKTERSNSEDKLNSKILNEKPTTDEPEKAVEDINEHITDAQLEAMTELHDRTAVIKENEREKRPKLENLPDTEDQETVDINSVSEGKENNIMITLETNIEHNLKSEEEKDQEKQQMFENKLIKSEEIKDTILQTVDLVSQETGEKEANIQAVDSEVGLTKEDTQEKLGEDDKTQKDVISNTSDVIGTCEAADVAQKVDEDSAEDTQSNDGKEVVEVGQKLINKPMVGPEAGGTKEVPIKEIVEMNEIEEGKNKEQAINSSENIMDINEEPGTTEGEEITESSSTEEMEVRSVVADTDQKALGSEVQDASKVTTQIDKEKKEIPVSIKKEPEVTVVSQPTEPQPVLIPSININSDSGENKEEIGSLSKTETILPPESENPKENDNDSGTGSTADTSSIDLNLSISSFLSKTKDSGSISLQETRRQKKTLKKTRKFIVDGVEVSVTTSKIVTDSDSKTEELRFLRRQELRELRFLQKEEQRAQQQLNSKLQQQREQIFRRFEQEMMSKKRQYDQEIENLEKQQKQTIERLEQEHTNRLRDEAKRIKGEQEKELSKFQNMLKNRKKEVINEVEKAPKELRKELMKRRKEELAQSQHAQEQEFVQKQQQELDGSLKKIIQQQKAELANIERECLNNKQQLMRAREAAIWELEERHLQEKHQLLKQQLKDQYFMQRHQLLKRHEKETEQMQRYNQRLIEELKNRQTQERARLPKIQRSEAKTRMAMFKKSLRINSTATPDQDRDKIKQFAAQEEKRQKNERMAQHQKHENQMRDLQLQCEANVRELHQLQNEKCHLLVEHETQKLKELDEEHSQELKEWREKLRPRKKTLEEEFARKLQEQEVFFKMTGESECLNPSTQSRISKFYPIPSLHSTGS

[2] = compound: C/C(=N\NC(=O)C1=CC(=CC=C1)S(=O)(=O)N2CCOCC2)/C3=C(C=CC(=C3)Cl)O
Procedure, shortened: as §1

[3] = compound: C1=CC(=C(C=C1Cl)C2=NC3=NC=CN=C3C(=N2)NC4=CC=NC=C4)F
Procedure, shortened: as §1

[4] = compound: C1=CC(=CC=C1C2=NC3=C(N2)C=C(C=C3)C(=O)N)OC4=CC=C(C=C4)Cl
Procedure, shortened: as §1

[5] = compound: C1=CC2=C(C=CC(=C2)/C=C\3/C(=O)NC(=NCC4=CC=CS4)S3)N=C1
Procedure, shortened: as §1

[6] = compound: C1=CC2=NC=CN=C2C=C1/C=C/3\C(=O)NC(=O)S3
Procedure, shortened: as §1

[7] = compound: C1=CC=C(C=C1)C2=NC(=C(N2)C3=CC=NC=C3)C4=CC(=C(C=C4)Cl)O
Procedure, shortened: as §1

[8] = compound: C1=CC=C2C(=C1)C3=NNC4=CC=CC(=C43)C2=O
Procedure, shortened: as §1

[9] = compound: C1CCN(C1)C(=O)NC2=CC=CC(=C2)NC3=NC=C(C(=N3)NCCC4=CN=CN4)Br
Procedure, shortened: as §1

[10] = compound: C1CN(CCC1(CC2=CC=C(C=C2)Cl)N)C3=NC=NC4=C3C=CN4
Procedure, shortened: as §1

Measured: log2 fold change

SMAP (UniProt O00193)
inactive: [1] -0.006 | [2] 0.026 | [3] 0.119 | [4] 0.017 | [5] -0.063 | [6] 0.073 | [7] -0.012 | [8] 0.015 | [9] 0.006 | [10] 0.047

SLC7A6OS (UniProt Q96CW6)
inactive: [1] -0.015 | [2] 0.018 | [3] 0.035 | [4] -0.039 | [5] 0.007 | [6] 0.042 | [7] 0.045 | [8] -0.025 | [9] -0.015 | [10] 0.022

SNX14 (UniProt Q9Y5W7)
inactive: [1] 0.064 | [2] -0.237 | [3] -0.146 | [4] 0.054 | [5] 0.041 | [6] -0.045 | [7] -0.051 | [8] 0.018 | [9] 0.039 | [10] 0.022

SMG1 (UniProt Q96Q15)
inactive: [1] 0.012 | [2] 0.101 | [3] 0.066 | [4] -0.012 | [5] -0.029 | [6] 0 | [7] -0.088 | [8] 0.049 | [9] -0.054 | [10] 0.066

SOCS2 (UniProt O14508)
inactive: [1] 0.025 | [2] 0.085 | [3] 0 | [4] -0.045 | [5] 0.049 | [6] 0.032 | [7] -0.066 | [8] -0.023 | [9] -0.001 | [10] -0.011

SMC6 isoform 2 (UniProt Q96SB8)
inactive: [1] -0.016 | [2] 0.06 | [3] 0.066 | [4] -0.029 | [5] 0.014 | [6] -0.038 | [7] -0.024 | [8] -0.003 | [9] 0.003 | [10] 0.03

SMG5 (UniProt Q9UPR3)
inactive: [1] 0.08 | [2] -0.169 | [3] -0.001 | [4] 0.125 | [5] -0.058 | [6] 0.045 | [7] 0.048 | [8] 0.002 | [9] -0.009 | [10] -0.011

SNRPB2 (UniProt P08579)
inactive: [1] -0.032 | [2] -0.056 | [3] -0.01 | [4] -0.019 | [5] -0.034 | [6] 0.042 | [7] -0.054 | [8] -0.015 | [9] 0.057 | [10] -0.026

SNUPN (UniProt O95149)
inactive: [1] -0.091 | [2] 0.032 | [3] 0.136 | [4] -0.019 | [5] 0.069 | [6] 0.037 | [7] -0.085 | [8] -0.053 | [9] 0.024 | [10] -0.061

SMS (UniProt P52788)
inactive: [1] -0.003 | [2] 0.017 | [3] 0.053 | [4] 0.008 | [5] 0.011 | [6] 0.03 | [7] 0.014 | [8] -0.017 | [9] -0.001 | [10] 0.048

SNRNP70 (UniProt P08621)
inactive: [1] -0.04 | [2] -0.112 | [3] -0.37 | [4] 0.027 | [5] -0.047 | [6] 0.013 | [7] -0.17 | [8] -0.057 | [9] 0.026 | [10] -0.253

SMAP1 isoform 2 (UniProt Q8IYB5)
inactive: [1] -0.015 | [2] 0.086 | [3] 0.002 | [4] 0.004 | [5] -0.003 | [6] 0.033 | [7] 0.001 | [8] -0.003 | [9] -0.074 | [10] 0.028

Two entries picked at random from those above:
SMG1 (UniProt Q96Q15)
inactive: [1] 0.012 | [2] 0.101 | [3] 0.066 | [4] -0.012 | [5] -0.029 | [6] 0 | [7] -0.088 | [8] 0.049 | [9] -0.054 | [10] 0.066

SOCS2 (UniProt O14508)
inactive: [1] 0.025 | [2] 0.085 | [3] 0 | [4] -0.045 | [5] 0.049 | [6] 0.032 | [7] -0.066 | [8] -0.023 | [9] -0.001 | [10] -0.011

Remaining list, next part

SMARCA5 (UniProt O60264)
inactive: [1] 0.103 | [2] 0.044 | [3] -0.058 | [4] 0.005 | [5] -0.012 | [6] 0.078 | [7] 0.052 | [8] -0.103 | [9] -0.109 | [10] -0.227

SNRPC (UniProt P09234)
inactive: [1] -0.031 | [2] -0.058 | [3] -0.008 | [4] 0.005 | [5] -0.123 | [6] 0.096 | [7] 0.009 | [8] -0.053 | [9] -0.001 | [10] 0.098

SNU13, A0A3B3IUA2
inactive: [1] 0.01 | [2] -0.055 | [3] 0.038 | [4] -0.025 | [5] 0.202 | [6] 0.02 | [7] -0.335 | [8] 0 | [9] 0.123 | [10] 0.064

SNRNP200 (UniProt O75643)
inactive: [1] -0.08 | [2] 0.002 | [3] -0.058 | [4] 0.088 | [5] -0.005 | [6] 0.05 | [7] -0.064 | [8] -0.033 | [9] 0.014 | [10] -0.041

SP6 (UniProt Q3SY56)
inactive: [1] 0.117 | [2] -0.016 | [3] -0.258 | [4] -0.066 | [5] -0.032 | [6] 0.041 | [7] -0.098 | [8] 0.053 | [9] -0.046 | [10] 0.118

SNW1 (UniProt Q13573)
inactive: [1] -0.047 | [2] -0.028 | [3] -0.029 | [4] 0.036 | [5] -0.015 | [6] 0.045 | [7] -0.051 | [8] -0.001 | [9] 0.001 | [10] 0.002

SNX1 (UniProt Q13596)
inactive: [1] 0.048 | [2] 0.034 | [3] 0.009 | [4] 0.055 | [5] 0.005 | [6] -0.035 | [7] -0.024 | [8] -0.118 | [9] 0.017 | [10] -0.03

SPA17 (UniProt Q15506)
inactive: [1] 0.066 | [2] -0.035 | [3] 0.125 | [4] -0.077 | [5] -0.019 | [6] 0.139 | [7] -0.122 | [8] -0.029 | [9] 0.021 | [10] -0.04

SMIM12 (UniProt Q96EX1)
inactive: [1] 0.049 | [2] 0.114 | [3] 0.069 | [4] -0.019 | [5] -0.146 | [6] -0.005 | [7] -0.022 | [8] 0.032 | [9] -0.018 | [10] 0.076

SMAD2 (UniProt Q15796)
inactive: [1] 0.061 | [2] 0.087 | [3] -0.065 | [4] 0.04 | [5] 0.069 | [6] -0.004 | [7] -0.05 | [8] -0.045 | [9] -0.034 | [10] 0.019

SNRPD3 (UniProt P62318)
inactive: [1] -0.019 | [2] -0.02 | [3] -0.04 | [4] -0.038 | [5] 0.012 | [6] 0.079 | [7] -0.113 | [8] -0.076 | [9] 0.068 | [10] -0.012

SNRPA (UniProt P09012)
inactive: [1] -0.072 | [2] -0.122 | [3] -0.101 | [4] -0.006 | [5] -0.074 | [6] 0.058 | [7] -0.104 | [8] -0.046 | [9] 0.084 | [10] -0.072

SMC4 (UniProt Q9NTJ3)
inactive: [1] 0.006 | [2] 0.044 | [3] -0.034 | [4] -0.027 | [5] -0.01 | [6] 0.014 | [7] 0.051 | [8] 0.018 | [9] -0.001 | [10] -0.071

SLC9A3R1 (UniProt O14745)
inactive: [1] 0.011 | [2] -0.013 | [3] 0.021 | [4] -0.004 | [5] -0.003 | [6] -0.005 | [7] 0.009 | [8] 0.002 | [9] 0.014 | [10] 0.039

SMARCAD1 isoform 2 (UniProt Q9H4L7)
inactive: [1] 0.089 | [2] 0.052 | [3] 0.071 | [4] 0.007 | [5] 0.05 | [6] -0.026 | [7] 0.025 | [8] 0.022 | [9] -0.02 | [10] -0.052

SLK isoform 2 (UniProt Q9H2G2)
inactive: [1] -0.023 | [2] 0.083 | [3] -0.098 | [4] -0.001 | [5] 0.043 | [6] 0.075 | [7] -0.135 | [8] -0.047 | [9] -0.028 | [10] -0.057

SORBS1 isoform 12 (UniProt Q9BX66)
inactive: [1] 0.011 | [2] -0.008 | [3] -0.051 | [4] 0.005 | [5] 0.024 | [6] 0.016 | [7] 0.046 | [8] -0.028 | [9] 0.025 | [10] 0.044

SMARCE1 (UniProt Q969G3)
inactive: [1] 0.101 | [2] 0.04 | [3] 0.017 | [4] 0 | [5] 0.009 | [6] 0 | [7] 0.001 | [8] -0.057 | [9] 0.075 | [10] -0.127
